Source: patent US9566282B2, “Methods for identifying and validating selective anti-cancer stem cell agents” (MCMASTER UNIVERSITY, priority 2011, dated 2017)
At least one structure is not confirmed: it was looked up by name or label, or the drawing left a doubt.

Test system: AML-OCI2 and AML-OCI3
Assay: Volumetric cell counts of AML lines treated with DR antagonists or agonists
Type: cell-based, human
Conditions: 72 h, serum-free conditions
Procedure: The number of AML-OCI2 and AML-OCI3 cells present after 72 h treatment with DR antagonists (FIG. 16b) and agonist (FIG. 16c-d) were counted by measuring the number of events within a fixed volume following the grating strategy defined by forward scatter and side scatter clustering, 7AAD− and Hoechst+.
Due to the bioavailability of dopamine in fetal bovine serum (FBS) (Little et al., 2002), serum-free conditions were employed to assess the role of DRs in AML. […] DR D2-family and D1-family exert opposing actions on intracellular signaling leading to differential biological effects (Self et al., 1996).

## CN1CCN(C2=Nc3cc(Cl)ccc3Nc3ccccc32)CC1 [clozapine, Clozapine]
  number of AML cells: reduced the number of AML cells
